# ± gives the standard deviation of the averaged measurements. This is one part of the list. Most values come without repeats; read them as rough.
# Tested on: RAW 264.7 macrophages infected with S. aureus JE2-lux
# Assay: host macrophage viability (CellTiter-Fluor) relative to DMSO vehicle; higher = more viable host cells
# Settings: 10 µM; treatment time 4 h; gentamicin 50 µg/ml
row,Compound,host macrophage viability [%]
1,Cc1cc(NC(=O)c2cc(=O)c3ccccc3o2)no1,106.7 ± 0.99
2,Cc1ccnc(NC(=O)C2CCN(S(=O)(=O)c3c(C)nn(CC(=O)N4CCCC4)c3C)CC2)c1,130
3,CCn1nc(C)c2[nH]c(=S)n(Cc3ccccc3Cl)c(=O)c21,139
4,CCn1c(SCC(=O)c2ccc(C)cc2)nc2cccnc21,109
5,COc1ccc2oc(=O)c(C(=O)Nc3cccc(-c4cn5cccc(C)c5n4)c3)cc2c1,116
6,CNc1ncccc1CN1CCc2cc(OC)c(OC)cc2C1c1ccccc1 (centres undefined),110
7,Cn1c(=O)[nH]c(=O)c2[nH]c(CN3CCN(c4ccc(F)cc4)CC3)nc21,119
8,CC(=O)N1CCCc2ccc(NC(=O)C(=O)NCCc3ccc(S(N)(=O)=O)cc3)cc21,103
9,CCOc1ccc2nc(-n3nc(C)c4c3NC(=O)CC4c3cc(Br)ccc3OC)sc2c1 (centres undefined),133
10,COc1ccc(CN(Cc2cc3cc(C)ccc3[nH]c2=O)C(=O)N2CCCC2)cc1,111
11,Cc1ccc2c(c1)n(Cc1ccc(Cl)cc1)c(=O)c1nc(C(=O)NCCN3CCCC3)nn12,112
12,Cn1c(SCC(=O)Nc2ccc3c(c2)OCO3)nc2c(-c3ccccc3)csc2c1=O,115
13,O=C(Nc1sc2c(c1C(=O)NC1CCS(=O)(=O)C1)CCCC2)c1ccccc1Cl (centres undefined),119
14,CN(C)S(=O)(=O)N1CCC(n2nc(C3CC3)ccc2=O)CC1,93.3
15,Cc1cc2ccccc2n2c(=O)n(CC(C)NC(=O)CC(C)n3cncn3)nc12 (centres undefined),115
16,CC(=O)Nc1cccc(NC(=O)CSc2nc(=O)n(Cc3ccco3)c3c2CCC3)c1,126
17,Cc1ccc(/C=C(\C#N)C(=O)Nc2ccccc2O)o1,81 ± 9
18,CC(=O)c1cccc(NC(=O)CSc2ccc(-c3ccccn3)nn2)c1,117
19,CN(C(=O)c1ccc(Cn2cccn2)o1)c1nc2c(s1)CCc1c-2cnn1C,95.1
20,Cc1cc(C)c2c(O)nc(SCC(=O)c3ccc(F)c(C)c3)nc2n1,121
21,CC(=O)Nc1cc2c(cc1NC(=O)c1ncoc1-c1cccc(F)c1)OCCO2,115
22,CCn1c(SCC(=O)NNC(=O)c2ccc(C)cc2)nc2c1c(=O)n(C)c(=O)n2C,115
23,Cc1cccc2cc(C#N)c(SCC(=O)Nc3ccccc3-c3ccccc3)nc12,108
24,COC(=O)c1ccc2nc(NC(=O)/C=C/c3cccs3)sc2c1,131
25,O=C(CSc1nnc2ccc(-c3ccncc3)nn12)NCc1ccc(F)cc1,112
26,Cn1nc(C(=O)NCc2ccc(F)cc2)c2c1CCN(C(=O)c1cc(-c3cccs3)on1)C2,127

# Quoted from the results shown for reference:
row,Compound,host macrophage viability [%]
18,CC(=O)c1cccc(NC(=O)CSc2ccc(-c3ccccn3)nn2)c1,117
19,CN(C(=O)c1ccc(Cn2cccn2)o1)c1nc2c(s1)CCc1c-2cnn1C,95.1
20,Cc1cc(C)c2c(O)nc(SCC(=O)c3ccc(F)c(C)c3)nc2n1,121
21,CC(=O)Nc1cc2c(cc1NC(=O)c1ncoc1-c1cccc(F)c1)OCCO2,115
22,CCn1c(SCC(=O)NNC(=O)c2ccc(C)cc2)nc2c1c(=O)n(C)c(=O)n2C,115
23,Cc1cccc2cc(C#N)c(SCC(=O)Nc3ccccc3-c3ccccc3)nc12,108

# (listing goes on)

row,Compound,host macrophage viability [%]
1,O=C(NCC1CCCN1S(=O)(=O)c1cccs1)c1ccc([N+](=O)[O-])cc1 (centres undefined),120
2,COc1ccccc1C(=O)Nc1cc(C(=O)N(C)C)cnc1N1CCNCC1,134
3,O=C(NCc1ccc2c(c1)OCO2)c1ccc(-c2ccc(N3CCOCC3)nn2)cc1,108
4,COc1ccc(CNC(=O)CSc2nccnc2N2CCSCC2)cc1,123
5,COc1cc(C(=O)Nc2cccc3ccccc23)c(-n2cnnn2)cc1OC,104
6,COc1ccc(CCNC(=O)Cn2c(-c3cccs3)cc3cccnc32)cc1OC,99.3
7,CCOC(=O)c1cc([N+](=O)[O-])sc1NC(=O)CC,98.7 ± 2.9
8,COc1ccc(S(=O)(=O)CCC(=O)Nc2nc3c(s2)COc2ccccc2-3)cc1,105
9,Cc1cc2cc3c(cc2nc1SCC(=O)Nc1ccc2c(c1)OCO2)CCC3,110
10,Cc1ccc2cc3cc(C(=O)OC(C(=O)NCC4CCCO4)c4ccccc4F)sc3nc2c1 (centres undefined),120
11,NC(=O)c1ccsc1NC(=O)c1ccc2c(c1)OCCO2,98
12,COC(=O)c1ccccc1NC(=O)c1cnc(C)nc1C,95.5
13,O=C(O)c1cccnc1Nc1cccc([N+](=O)[O-])c1,99.4
14,Cc1csc(-c2csc(S(=O)(=O)N3CC=C(c4ccccc4)CC3)c2)n1,101
15,Cc1ccc(Cc2nn3c(SCC(=O)c4ccc(C)cc4)nnc3[nH]c2=O)cc1,114
16,O=C1Nc2ccccc2/C1=C1/SC(=S)N(Nc2ccccc2)C1=O,112
17,CC(=O)Nc1ccc(S(=O)(=O)Nc2cncc(C(=O)NC3CCCC3)c2)cc1,104
18,Cc1cccc(NC(=O)C2CCN(C(=O)NCc3ccccc3)CC2)c1C,110
19,CCOC(=O)c1c(-c2ccccc2)csc1NC1SC(=O)N(c2ccccc2)C1=O (centres undefined),119
20,Cc1ccccc1C(=O)NCCNc1nc2c(c(=O)n(C)c(=O)n2C)n1Cc1ccccc1,99.5
21,CCOC(=O)c1c(C)oc2c1/C(=C/NCCO)C(=O)c1ccccc1-2,136
22,CCc1ccc(N2C(=O)NC3CC2(C)Oc2ccccc23)cc1 (centres undefined),113
23,Cc1ccc(-c2nc3scc(CCNS(=O)(=O)c4ccc5c(c4)OCCO5)n3n2)cc1,116
24,Cc1ccc2nc(-c3ccc(F)cc3)nc(SCC(=O)NCC3CCCO3)c2c1 (centres undefined),113
25,Cn1cc(NC(=O)c2ccc(C(F)(F)F)nc2N2CCN(CCO)CC2)cn1,106
26,Cc1nn2c(C(F)(F)F)cc(-c3ccccn3)nc2c1-c1ccccc1,117

row,Compound,host macrophage viability [%]
1,CCOc1ccccc1NC(=O)c1cnc2sccn2c1=O,105 ± 6
2,COc1ccc(CCN2CCCn3c2nc2c3c(=O)[nH]c(=O)n2C)cc1OC,107
3,O=C(O)c1ccc(CN2C(=O)CSC2=O)cc1,111
4,O=c1/c(=C/c2cccc([N+](=O)[O-])c2)sc2nc(-c3ccncc3)nn12,117
5,COc1ccc2nc(CN3CCC(NC(C)=O)(c4ccccc4F)CC3)ccc2c1,121
6,COc1ccc(C)cc1NC(=O)CCN1C(=O)c2ccccc2S1(=O)=O,112
7,O=C(CSc1c(-c2ccccc2)[nH]c2ccccc12)NCc1ccco1,117
8,Cn1c(=O)c(Nc2ccc(O)cc2)c2c3c(cccc31)C(=O)c1ccccc1-2,83.1
9,CN(C)CCn1c2c(c(SCC(=O)Nc3ccc([N+](=O)[O-])cc3)nc1=O)CCC2,117
10,CCOCCCNC(=O)c1sc2nc(C)nc(N3CCCC3)c2c1C,123
11,CCn1c(C)cc2cc(NC(=O)c3c(-c4ccncc4)noc3C)ccc21,108
12,COc1ccc(CCC(=O)Nc2ccc3c(c2)C(=O)Nc2ccccc2O3)cc1,120
13,O=C(CN1C(=O)c2ccccc2C1=O)OCC(=O)c1ccc(-c2ccccc2)cc1,117
14,CC(C)NC(=O)CN1CCN(c2ncc(NC(=O)c3ccc(F)cc3)cc2C(=O)O)CC1,113
15,COc1ccc(NC(=O)CSc2nc3ccccc3c(=O)[nH]2)c(OC)c1,94
16,CCOC(=O)c1sc(NC(=O)CSc2nc(=O)n3ccc(C)cc3n2)c(C(=O)OCC)c1C,114
17,C=CCOc1ccccc1NC(=O)c1cnc(N2CCOCC2)nc1,120
18,CC(Cc1ccco1)NC(=O)Cn1cccc1-c1nc(-c2ccccc2)cs1 (centres undefined),82.7
19,O=C1Nc2ccc(Br)cc2/C1=N/NC(=O)c1ccccc1NC(=O)c1ccccc1,107
20,Cc1nn2c(-n3cccc3)c(-c3ccc(F)cc3)nc2s1,123
21,O=C(Nc1cc2c3c(c1)CCC(=O)N3CCC2)c1cccc(C(F)(F)F)c1,110
22,CCC1Sc2ccc(S(=O)(=O)CCC(=O)NC(C)(C)C)cc2NC1=O (centres undefined),120
23,O=C(NCc1ccc2[nH]c3c(c2c1)CCCC3)Nc1ccc(Cl)cc1,120.5 ± 1.2
24,NC(=O)c1c(NC(=O)/C=C/c2ccc(Cl)cc2Cl)sc2c1CCCC2,126
25,Cc1nc(N2CCCC2)c2c(C)c(C(=O)N3CCOCC3)sc2n1,96.2
26,Clc1cccc2nc3n(c12)CCN(C1CCCCC1)C3,110

row,Compound,host macrophage viability [%]
1,CN(Cc1cc(O)nc2ccccc12)S(=O)(=O)c1ccc2c(c1)CCC(=O)N2,115
2,COCCNC(=O)Cn1nc2c3c(C)c(C)sc3ncn2c1=O,138
3,Cc1nc2nc(NC(=O)Cn3nnc4ccccc43)ccc2c(C)c1C,112
4,Cc1ccc(/N=C2/NC(=O)/C(=C/c3ccccc3)S2)cc1,118
5,C=CCOC(=O)C1=C(C)Nc2c(c(=O)n(C)c(=O)n2C)C1c1cccnc1 (centres undefined),115
6,O=C(O)CCC(=O)NCCn1c(-c2ccccc2)cs/c1=N/c1ccccc1,118 ± 13
7,Cc1cc(C)nc(NS(=O)(=O)c2ccc(NC(=O)c3ccc(Cl)cc3)cc2)n1,141
8,Cc1ncc(C(=O)NC(c2ccccc2)c2ccnn2C)c(C)n1 (centres undefined),112
9,O=C(CSc1c[nH]c2ccccc12)NCc1ccccc1,112
10,Cc1ccc(NC(=O)CSc2c[nH]c3ccccc23)c(C)c1,134
11,COc1cc(Cl)c(C)cc1NC(=O)CSc1nc2c(-c3ccccc3)csc2c(=O)n1C,136
12,Cc1nc2ccccc2cc1C(=O)NCc1ccccn1,91.7
13,O=C(NCc1cccnc1)C(=O)c1cn(CC(=O)N2CCCCC2)c2ccccc12,113
14,CCS(=O)(=O)c1ccc(C(=O)Nc2nc3ccc(Br)cc3s2)cc1,122
15,CNc1nc2c(c(=O)n(C)c(=O)n2C)n1CCSc1nc2ccccc2s1,117
16,COc1c(Sc2ccc([N+](=O)[O-])cc2)c(C)nn1-c1ccccc1,105 ± 8.9
17,COc1ccc(-c2ocnc2C(=O)NCCc2cccc(F)c2)cc1OC,111
18,O=C(Cn1c(CN2CCCCC2)nc2ccccc21)N1CCOCC1,106
19,CC(=O)Nc1ccc(Nc2c3c(c(C#N)c4nc5ccccc5n24)CCCC3)cc1,129
20,CCOC(=O)c1c(SCC(=O)Nc2cc(C(F)(F)F)cc(C(F)(F)F)c2)nc(=O)[nH]c1C,109
21,COc1cccc2cc(C(N)=O)/c(=N\c3ccc(O)cc3)oc12,111
22,Cc1c(Cl)cccc1N1CCCn2c1nc1c2c(=O)n(CC(=O)O)c(=O)n1C,127
23,COc1ccc([N+](=O)[O-])cc1NC(=O)CSc1ccc(C)cc1,103
24,COc1ccc2[nH]c3nc(SCC(=O)Nc4ccccc4Cl)nnc3c2c1,118
25,CCn1ncc(C2=NOC(C(=O)NCc3cccnc3)C2)c1C (centres undefined),102
26,CCOc1ccc2[nH]c(C(=O)NC(c3ccccc3)c3cccnc3)c(C)c2c1 (centres undefined),113

# — the supplement of paper PMC12578635
